Assay results: publication PMC4255029
Results are given in words; binding and its absence hold for the method and conditions named. In cells and extracts the contact can be indirect. Some binding calls cover weakened binding; strength is not graded here.

Chains of the proteins cited; added tags and fusions are not shown.
UniProt Q14457: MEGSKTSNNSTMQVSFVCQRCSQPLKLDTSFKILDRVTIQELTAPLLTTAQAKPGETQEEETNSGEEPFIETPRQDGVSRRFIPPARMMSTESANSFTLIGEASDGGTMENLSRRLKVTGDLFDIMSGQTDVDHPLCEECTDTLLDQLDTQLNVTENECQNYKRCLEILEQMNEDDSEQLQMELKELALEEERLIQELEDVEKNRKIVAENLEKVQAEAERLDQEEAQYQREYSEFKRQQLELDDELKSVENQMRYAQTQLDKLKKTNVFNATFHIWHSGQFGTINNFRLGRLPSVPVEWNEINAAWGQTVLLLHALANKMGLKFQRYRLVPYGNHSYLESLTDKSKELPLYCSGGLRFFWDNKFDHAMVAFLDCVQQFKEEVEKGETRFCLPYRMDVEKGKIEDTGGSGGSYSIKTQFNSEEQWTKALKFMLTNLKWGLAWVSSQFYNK

Molecular target: T1, GAIP interacting protein C terminus (GIPC) (human (endogenous in PANC-1)) (UniProt O14908)
T1 sequence: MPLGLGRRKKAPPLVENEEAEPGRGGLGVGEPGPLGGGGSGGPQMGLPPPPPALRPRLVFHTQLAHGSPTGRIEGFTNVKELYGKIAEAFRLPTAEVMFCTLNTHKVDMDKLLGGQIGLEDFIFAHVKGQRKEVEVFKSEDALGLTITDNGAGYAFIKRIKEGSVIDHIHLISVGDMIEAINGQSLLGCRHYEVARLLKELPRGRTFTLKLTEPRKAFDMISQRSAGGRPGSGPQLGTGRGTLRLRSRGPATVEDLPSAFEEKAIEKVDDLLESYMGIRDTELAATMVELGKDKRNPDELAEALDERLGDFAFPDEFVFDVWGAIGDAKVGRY
Experiment: co-IP; GIPC antibody used to precipitate from PANC-1 cell lysates (cells transfected with siRNA to GIPC or scrambled control); immunocomplexes blotted for Beclin1 and GIPC

binding: binds
Substance: Beclin1 (from UniProt Q14457 1-450)
